Reference: patent US5156956A, “Transgultaminase” (Ajinomoto Co., Inc., priority 1987, dated 1992)

Tests used:
[1] = Kamaboko (steamed fish paste): rheometer and organoleptic evaluation
[2] = Sausage: rheometer and organoleptic evaluation
Experimental: Physical properties were measured with a rheometer (manufactured by Yamaden Co., Ltd.) and organoleptic evaluation (n=10) was performed. The amount of BTGase added was 1 unit per 1 g of dry pork. The enzyme reaction was carried out at 55° C. for 2 hours. After completion of the reaction, heating was performed at 80° C. for 30 minutes to make a product. As a control, BTGase-free product was used.

[3] = Japanese noodle: tensile test and organoleptic evaluation
[4] = 20 units per 1 g of dry fish paste, 34° C. 2 h, then 85° C. 30 min
[5] = 1 U per 1 g of protein, boiled 12 minutes, n = 10

B1: BTGase: microorganism-derived transglutaminase; in Examples 4-11 the freeze dried product prepared in Example 1 (S. mobaraense, i.e. BTG-1) (protein, UniProt P81453 77-407, looked up)
Protein-glutamine …: DSDDRVTPPAEPLDRMPDPYRPSYGRAETVVNNYIRKWQQVYSHRDGRKQQMTEEQREWLSYGCVGVTWVNSGQYPTNRLAFASFDEDRFKNELKNGRPRSGETRAEFEGRVAKESFDEEKGFQRAREVASVMNRALENAHDESAYLDNLKKELANGNDALRNEDARSPFYSALRNTPSFKERNGGNHDPSRMKAVIYSKHFWSGQDRSSSADKRKYGDPDAFRPAPGTGLVDMSRDRNIPRSPTSPGEGFVNFDYGWFGAQTEADADKTVWTHGNHYHAPNGSLGAMHVYESKFRNWSEGYSDFDRGAYVITFIPKSWNTAPDKVKQGWP
- Breaking Strength [1, 4]: 804 ± 58 g
- Strain (%) [1, 4]: 46.3 ± 1.3%
- Organoleptic evaluation, texture against control ([1]; n=10): preferred texture
- Elasticity ([2]; 1 unit per 1 g of dry pork, 55° C. 2 h, then 80° C. 30 min): 5.83 × 10^5 dyn.cm^-2
- Organoleptic evaluation, texture against control ([2]; n=10): highly viscoelastic and preferable texture
- Breaking Strength [3, 5]: 885 ± 48 g
- Elongation (%) [3, 5]: 51 ± 13%
- Organoleptic evaluation, texture ([3]; n=15): noodles having a firm texture
